Source: the supplement of paper PMC10849652
The list shows a part of the results.

By UniProt entry, the sequences of proteins in these tests, tags left out. Where a name states a change or a piece, a line headed by the entry shows the natural chain unless it says otherwise.
UniProt Q9H6A9: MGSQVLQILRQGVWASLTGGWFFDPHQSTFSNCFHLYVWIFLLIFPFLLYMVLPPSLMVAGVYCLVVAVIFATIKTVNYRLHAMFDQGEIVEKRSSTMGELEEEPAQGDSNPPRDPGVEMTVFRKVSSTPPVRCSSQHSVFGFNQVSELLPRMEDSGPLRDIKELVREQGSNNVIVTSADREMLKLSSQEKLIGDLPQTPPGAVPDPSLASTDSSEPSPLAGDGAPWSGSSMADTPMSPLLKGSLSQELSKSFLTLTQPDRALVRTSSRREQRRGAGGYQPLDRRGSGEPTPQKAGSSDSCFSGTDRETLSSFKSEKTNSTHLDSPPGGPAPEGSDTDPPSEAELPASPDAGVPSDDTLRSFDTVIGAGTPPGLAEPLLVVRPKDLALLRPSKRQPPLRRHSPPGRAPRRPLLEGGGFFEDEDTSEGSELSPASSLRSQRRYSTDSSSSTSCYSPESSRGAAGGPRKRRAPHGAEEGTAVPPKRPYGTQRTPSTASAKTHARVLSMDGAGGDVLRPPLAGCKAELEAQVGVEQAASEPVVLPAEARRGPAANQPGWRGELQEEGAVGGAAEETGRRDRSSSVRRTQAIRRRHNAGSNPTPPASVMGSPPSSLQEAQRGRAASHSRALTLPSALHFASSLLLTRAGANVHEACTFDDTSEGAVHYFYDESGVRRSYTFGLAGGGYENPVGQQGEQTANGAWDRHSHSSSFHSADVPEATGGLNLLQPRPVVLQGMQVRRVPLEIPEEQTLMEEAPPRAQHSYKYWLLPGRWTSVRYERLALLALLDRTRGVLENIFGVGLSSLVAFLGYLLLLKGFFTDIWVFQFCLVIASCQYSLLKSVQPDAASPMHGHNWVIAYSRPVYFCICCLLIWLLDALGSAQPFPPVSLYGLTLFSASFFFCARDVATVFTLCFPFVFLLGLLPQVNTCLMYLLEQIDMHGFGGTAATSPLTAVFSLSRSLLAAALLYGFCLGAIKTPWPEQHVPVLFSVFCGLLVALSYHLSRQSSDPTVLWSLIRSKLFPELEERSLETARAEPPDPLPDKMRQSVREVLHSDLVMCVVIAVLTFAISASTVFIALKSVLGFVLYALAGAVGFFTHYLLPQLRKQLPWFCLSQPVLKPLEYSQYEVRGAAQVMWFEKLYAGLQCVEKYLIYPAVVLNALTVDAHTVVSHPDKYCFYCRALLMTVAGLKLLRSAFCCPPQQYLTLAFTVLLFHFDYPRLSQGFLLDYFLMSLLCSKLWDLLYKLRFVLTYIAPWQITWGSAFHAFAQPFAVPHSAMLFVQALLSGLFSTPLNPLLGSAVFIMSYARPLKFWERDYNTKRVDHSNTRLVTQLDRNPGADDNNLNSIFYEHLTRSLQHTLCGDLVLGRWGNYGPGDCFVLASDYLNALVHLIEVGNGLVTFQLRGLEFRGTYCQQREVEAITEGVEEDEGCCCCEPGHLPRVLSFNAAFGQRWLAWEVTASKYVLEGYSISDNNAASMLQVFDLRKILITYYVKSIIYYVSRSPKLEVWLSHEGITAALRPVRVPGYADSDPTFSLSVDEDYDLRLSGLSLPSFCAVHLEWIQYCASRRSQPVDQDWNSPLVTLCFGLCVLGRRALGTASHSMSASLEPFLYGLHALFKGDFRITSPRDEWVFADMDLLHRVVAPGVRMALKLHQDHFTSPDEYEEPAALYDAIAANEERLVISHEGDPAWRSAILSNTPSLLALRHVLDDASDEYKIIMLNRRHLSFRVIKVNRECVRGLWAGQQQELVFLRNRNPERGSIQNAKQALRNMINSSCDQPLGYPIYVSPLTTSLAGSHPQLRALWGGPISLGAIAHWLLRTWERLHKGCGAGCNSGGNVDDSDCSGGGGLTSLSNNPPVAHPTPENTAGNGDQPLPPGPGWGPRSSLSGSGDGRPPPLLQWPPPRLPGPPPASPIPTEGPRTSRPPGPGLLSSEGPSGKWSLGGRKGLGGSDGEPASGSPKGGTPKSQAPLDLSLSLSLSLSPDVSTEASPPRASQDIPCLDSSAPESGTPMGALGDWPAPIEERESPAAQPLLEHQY
UniProt Q9UBM1: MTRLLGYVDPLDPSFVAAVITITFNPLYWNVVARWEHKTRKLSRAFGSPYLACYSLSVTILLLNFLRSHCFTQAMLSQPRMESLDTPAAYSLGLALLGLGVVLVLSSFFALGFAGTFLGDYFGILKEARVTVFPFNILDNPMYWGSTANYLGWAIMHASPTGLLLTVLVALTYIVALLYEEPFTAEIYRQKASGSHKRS
UniProt Q58A45: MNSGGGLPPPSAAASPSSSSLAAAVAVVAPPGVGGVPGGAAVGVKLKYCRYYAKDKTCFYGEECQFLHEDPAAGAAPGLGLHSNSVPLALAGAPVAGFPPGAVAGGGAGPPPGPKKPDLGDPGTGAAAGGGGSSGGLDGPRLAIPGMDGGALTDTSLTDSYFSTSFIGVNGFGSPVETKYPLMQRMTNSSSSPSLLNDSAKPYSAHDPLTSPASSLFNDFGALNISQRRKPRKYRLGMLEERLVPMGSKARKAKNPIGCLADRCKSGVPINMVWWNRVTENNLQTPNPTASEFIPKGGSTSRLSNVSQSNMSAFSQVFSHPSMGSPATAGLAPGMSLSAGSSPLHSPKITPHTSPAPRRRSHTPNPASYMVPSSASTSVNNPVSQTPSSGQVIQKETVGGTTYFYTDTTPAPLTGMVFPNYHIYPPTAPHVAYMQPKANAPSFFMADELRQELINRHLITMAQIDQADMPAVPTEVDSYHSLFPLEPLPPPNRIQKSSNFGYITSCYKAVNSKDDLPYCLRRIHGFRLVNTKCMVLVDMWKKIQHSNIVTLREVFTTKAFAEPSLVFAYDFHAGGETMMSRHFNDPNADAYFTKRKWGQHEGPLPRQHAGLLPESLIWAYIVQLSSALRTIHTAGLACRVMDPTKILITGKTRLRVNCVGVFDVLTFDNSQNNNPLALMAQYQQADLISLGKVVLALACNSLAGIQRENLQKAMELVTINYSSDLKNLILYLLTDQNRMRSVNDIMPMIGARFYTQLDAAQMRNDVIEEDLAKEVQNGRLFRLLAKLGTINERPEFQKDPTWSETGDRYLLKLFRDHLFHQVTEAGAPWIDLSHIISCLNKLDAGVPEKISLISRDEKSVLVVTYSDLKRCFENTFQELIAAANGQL
UniProt Q7Z2X7: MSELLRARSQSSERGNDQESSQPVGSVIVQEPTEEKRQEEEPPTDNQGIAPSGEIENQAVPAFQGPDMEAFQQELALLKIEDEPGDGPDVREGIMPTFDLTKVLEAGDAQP
UniProt O94913, whole entry, looked up: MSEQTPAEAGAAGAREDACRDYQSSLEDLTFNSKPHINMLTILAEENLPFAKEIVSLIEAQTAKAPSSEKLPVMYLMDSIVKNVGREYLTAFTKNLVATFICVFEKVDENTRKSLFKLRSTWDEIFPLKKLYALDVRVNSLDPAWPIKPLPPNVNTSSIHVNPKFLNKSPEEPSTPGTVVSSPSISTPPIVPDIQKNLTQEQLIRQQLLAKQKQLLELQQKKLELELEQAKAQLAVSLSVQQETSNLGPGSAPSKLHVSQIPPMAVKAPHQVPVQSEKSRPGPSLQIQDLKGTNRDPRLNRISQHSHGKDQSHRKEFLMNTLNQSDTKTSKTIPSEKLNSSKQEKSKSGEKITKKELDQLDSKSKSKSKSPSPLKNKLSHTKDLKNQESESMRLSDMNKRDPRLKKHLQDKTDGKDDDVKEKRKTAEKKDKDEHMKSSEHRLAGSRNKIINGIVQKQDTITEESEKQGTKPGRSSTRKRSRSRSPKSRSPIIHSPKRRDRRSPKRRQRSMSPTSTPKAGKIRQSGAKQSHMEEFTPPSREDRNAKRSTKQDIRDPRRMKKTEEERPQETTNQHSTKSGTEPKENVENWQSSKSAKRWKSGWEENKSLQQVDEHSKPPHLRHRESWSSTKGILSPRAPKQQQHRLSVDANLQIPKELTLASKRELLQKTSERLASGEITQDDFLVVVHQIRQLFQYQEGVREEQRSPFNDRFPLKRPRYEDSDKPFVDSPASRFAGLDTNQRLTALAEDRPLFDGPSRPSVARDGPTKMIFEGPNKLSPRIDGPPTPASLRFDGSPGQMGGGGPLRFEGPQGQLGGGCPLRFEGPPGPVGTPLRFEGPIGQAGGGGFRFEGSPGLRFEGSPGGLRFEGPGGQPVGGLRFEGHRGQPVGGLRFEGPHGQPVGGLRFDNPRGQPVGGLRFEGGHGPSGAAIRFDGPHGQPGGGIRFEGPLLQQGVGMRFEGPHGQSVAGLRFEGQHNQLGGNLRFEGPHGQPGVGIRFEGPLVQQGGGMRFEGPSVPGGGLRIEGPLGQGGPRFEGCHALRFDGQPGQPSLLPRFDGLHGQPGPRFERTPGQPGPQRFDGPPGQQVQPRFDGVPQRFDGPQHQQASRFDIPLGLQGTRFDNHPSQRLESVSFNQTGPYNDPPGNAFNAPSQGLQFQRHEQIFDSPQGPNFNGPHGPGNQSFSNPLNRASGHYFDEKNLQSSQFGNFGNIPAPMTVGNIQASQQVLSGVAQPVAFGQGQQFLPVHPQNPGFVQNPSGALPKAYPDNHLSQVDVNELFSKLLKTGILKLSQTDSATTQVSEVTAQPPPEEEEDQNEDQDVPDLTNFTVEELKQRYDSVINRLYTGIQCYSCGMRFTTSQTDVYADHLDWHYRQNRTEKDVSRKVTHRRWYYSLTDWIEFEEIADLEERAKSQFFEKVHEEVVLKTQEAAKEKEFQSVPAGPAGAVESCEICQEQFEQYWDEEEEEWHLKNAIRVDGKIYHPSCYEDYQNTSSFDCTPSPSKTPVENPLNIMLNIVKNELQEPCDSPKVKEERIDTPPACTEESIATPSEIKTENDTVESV
UniProt O60683: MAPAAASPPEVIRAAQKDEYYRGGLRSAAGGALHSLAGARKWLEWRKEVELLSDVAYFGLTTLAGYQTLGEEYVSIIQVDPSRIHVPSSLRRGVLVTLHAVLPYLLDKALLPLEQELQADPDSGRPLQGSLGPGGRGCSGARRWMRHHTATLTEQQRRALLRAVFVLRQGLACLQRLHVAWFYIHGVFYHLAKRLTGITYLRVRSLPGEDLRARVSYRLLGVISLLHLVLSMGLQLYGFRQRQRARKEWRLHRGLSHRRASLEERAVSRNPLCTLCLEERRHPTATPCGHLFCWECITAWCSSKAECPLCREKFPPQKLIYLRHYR
UniProt O75781: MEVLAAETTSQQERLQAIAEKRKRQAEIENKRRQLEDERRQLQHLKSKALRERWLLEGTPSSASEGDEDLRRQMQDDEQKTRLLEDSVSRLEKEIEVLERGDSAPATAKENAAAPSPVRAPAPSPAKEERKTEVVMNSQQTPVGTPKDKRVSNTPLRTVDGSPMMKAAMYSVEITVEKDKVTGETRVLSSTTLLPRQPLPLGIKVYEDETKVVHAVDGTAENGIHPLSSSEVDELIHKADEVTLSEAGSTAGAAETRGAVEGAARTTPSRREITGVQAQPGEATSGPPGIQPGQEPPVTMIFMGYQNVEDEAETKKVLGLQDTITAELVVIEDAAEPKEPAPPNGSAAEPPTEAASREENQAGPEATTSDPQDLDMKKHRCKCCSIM

Experiments:
Assay in all cases: log2 fold change, soluble protein after heating vs DMSO (PISA); higher = thermal stabilisation; K562 cells, 10 uM, 30 min; active = over 0.2 and 3.5 SD of the protein, either way, in both replicates (recomputed)
[1] = compound: CC1=NC(=CC=C1)C2=C(N=C(N2)C(C)(C)C)C3=CC4=NC=CN=C4C=C3
Outline: (§1)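 K562 cells at 2×10^6 cells/mL were exposed to 10 μM compound for 30 min, then aliquots were heated for 3 min across 48°C-58°C, pooled, and extracted in PBS containing 0.5% NP-40 at 4°C. The supernatant after 21,000xg for 90 min was taken as soluble protein and measured by TMTpro 16plex LC-MS/MS with channel sums equalised. Thermal stability is reported relative to control samples, with values from duplicates. Fold changes are given on a log2 scale.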

vemurafenib = compound: CCCS(=O)(=O)Nc1ccc(F)c(C(=O)c2c[nH]c3ncc(-c4ccc(Cl)cc4)cc23)c1F [vemurafenib]
Outline: as §1

givinostat = compound: CCN(CC)Cc1ccc2cc(COC(=O)Nc3ccc(C(=O)NO)cc3)ccc2c1 [givinostat]
Outline: as §1

[2] = compound: CC1=CC=C(C=C1)SC2=C3C=C(SC3=CN=C2)C(=O)N
Outline: as §1

[3] = compound: CCCS(=O)(=O)Nc1ccc(F)c(C(=O)c2c[nH]c3ncc(Cl)cc23)c1F
Outline: as §1

[4] = compound: CC1=C(C=C(C=C1)NC(=O)C2=CC(=CC=C2)N(C)C)NC(=O)C3=CC=C(C=C3)O
Outline: as §1

[5] = compound: CC1=C(C=C(C=C1)NC(=O)C2=CC(=CC=C2)C(C)(C)C#N)NC3=CC4=C(C=C3)N=CN(C4=O)C
Outline: as §1

Nexturastat A = compound: CCCCN(Cc1ccc(C(=O)NO)cc1)C(=O)Nc1ccccc1 [Nexturastat A]
Outline: as §1

[6] = compound: CCCc1cc(C)[nH]c(=O)c1CNC(=O)c1cc(-c2ccnc(N3CCN(C)CC3)c2)cc2c1cnn2C(C)C
Outline: as §1

barasertib = compound: CCN(CCCOc1ccc2c(Nc3cc(CC(=O)Nc4cccc(F)c4)[nH]n3)ncnc2c1)CCOP(=O)(O)O [barasertib]
Outline: as §1

Measured: log2 fold change

PDE4DIP (UniProt E9PS60)
inactive: [1] 0.013 | vemurafenib -0.214 | givinostat 0.016

PCNX3 (UniProt Q9H6A9)
inactive: [2] 0.04 | [3] -0.36 | givinostat 0.066

PCYT2 (UniProt I3L1F9)
inactive: [2] -0.28 | [3] -0.132

PEMT isoform 2 (UniProt Q9UBM1)
inactive: givinostat -0.141

PAN3 (UniProt Q58A45)
inactive: [4] 0.101

PCBP2 (UniProt F8VRH0)
inactive: [5] 0.419 | [2] 0.019 | [1] 0.172 | Nexturastat A 0.136 | vemurafenib -0.235 | [3] 0.123 | [6] -0.199 | givinostat 0.04 | barasertib -0.201

PDIA4, A0A499FI48
inactive: [4] -0.013 | [2] -0.283 | [1] -0.059 | vemurafenib -0.013 | [3] -0.062 | [6] 0.025

PCBP2 (UniProt F8VZX2)
inactive: [4] -0.14 | [1] 0.005 | [6] -0.098 | givinostat 0.009 | barasertib -0.173

PAGE2 (UniProt Q7Z2X7)
inactive: [5] -0.054 | [2] 0.014 | [1] -0.025 | Nexturastat A -0.003 | vemurafenib 0.175 | [3] -0.02 | [6] -0.011 | givinostat -0.061 | barasertib 0.128

PCF11 (UniProt O94913)
inactive: [4] 0.045 | [2] 0.019 | [1] -0.018 | vemurafenib -0.058 | [3] 0.006 | [6] -0.3 | barasertib -0.168

PEX10 isoform 2 (UniProt O60683)
inactive: [5] -0.002 | [2] 0.143 | [3] -0.011 | [6] 0.02

Reprinted from the results shown (2 entries):
PAGE2 (UniProt Q7Z2X7)
inactive: [5] -0.054 | [2] 0.014 | [1] -0.025 | Nexturastat A -0.003 | vemurafenib 0.175 | [3] -0.02 | [6] -0.011 | givinostat -0.061 | barasertib 0.128

PCF11 (UniProt O94913)
inactive: [4] 0.045 | [2] 0.019 | [1] -0.018 | vemurafenib -0.058 | [3] 0.006 | [6] -0.3 | barasertib -0.168

Remaining list, next part:

PALM (UniProt O75781)
inactive: [1] -0.001 | vemurafenib -0.063 | [6] 0.024 | givinostat -0.051
